Reference: US12484581B2, “Agricultural or horticultural insecticide or animal ectoparasite or endoparasite control agent each comprising a condensed heterocyclic compound having a substituted cyclopropane-oxadiazole group or a salt thereof as active ingredient, and method for using the insecticide or the control agent” (NIHON NOHYAKU CO., LTD., priority 2019, dated 2025)
Some entries share one result that the patent states for a list of compounds.

Tested on: Myzus persicae
Experiment: Test for control efficacy on Myzus persicae
Type: in vivo
Details: 500 ppm, foliar application to potted Chinese cabbage plants, 6 days after application

SMILES: CCS(=O)(=O)c1cc(-c2noc(C3(c4ccccc4)CC3)n2)cnc1-c1nc2cc(C(F)(F)F)cnc2n1C [Compound 1-5]
- control efficacy (control rate): A (the control rate is 100%.)

SMILES: CCS(=O)(=O)c1cc(-c2noc(C3CC3C)n2)cnc1-c1nc2cc(C(F)(F)F)cnc2n1C (stereo not drawn) [Compound 1-6, 3-(5-ethylsulfonyl-6-(3-methyl-6-trifluoromethyl-3H-imidazo[4,5-b]pyridin-2-yl)pyridin-3-yl)-5-(2-methylcyclopropyl)-1,2,4-oxadiazole]
- control efficacy (control rate): A (the control rate is 100%.)

SMILES: CCS(=O)(=O)c1cc(-c2noc(C3(C)CC3)n2)cnc1-c1nc2cc(C(F)(F)F)cnc2n1C [Compound 1-2]
- control efficacy (control rate): A (the control rate is 100%.)

SMILES: CCS(=O)(=O)c1cc(-c2noc(C3(C(F)(F)F)CC3)n2)cnc1-c1nc2cc([S+]([O-])C(F)(F)F)ccc2n1C (stereo not drawn) [Compound 1-8]
- control efficacy (control rate): A (the control rate is 100%.)

SMILES: CCS(=O)(=O)c1cc(-c2noc(C3(C(F)(F)F)CC3)n2)cnc1-c1nc2cc(C(F)(F)F)cnc2n1C [Compound 1-4, 3-(5-ethylsulfonyl-6-(3-methyl-6-trifluoromethyl-3H-imidazo [4,5-b]pyridin-2-yl)pyridin-3-yl)-5-(1-trifluoromethylcyclopropyl)-1,2,4-oxadiazole]
- control efficacy (control rate): A (the control rate is 100%.)

SMILES: CCS(=O)(=O)c1cc(-c2noc(C3(C(F)(F)F)CC3)n2)cnc1-c1nc2cc(C(F)(F)F)ncc2n1C [Compound 1-7]
- control efficacy (control rate): A (the control rate is 100%.)
